Laboratory results published in the supplement of paper PMC10849652.
This is one part of the list.

Sequences of proteins named here, by UniProt entry; tags and fusion partners are left off. A change or cut given only in a name is not applied to a line headed by its entry.
UniProt Q8N1G4: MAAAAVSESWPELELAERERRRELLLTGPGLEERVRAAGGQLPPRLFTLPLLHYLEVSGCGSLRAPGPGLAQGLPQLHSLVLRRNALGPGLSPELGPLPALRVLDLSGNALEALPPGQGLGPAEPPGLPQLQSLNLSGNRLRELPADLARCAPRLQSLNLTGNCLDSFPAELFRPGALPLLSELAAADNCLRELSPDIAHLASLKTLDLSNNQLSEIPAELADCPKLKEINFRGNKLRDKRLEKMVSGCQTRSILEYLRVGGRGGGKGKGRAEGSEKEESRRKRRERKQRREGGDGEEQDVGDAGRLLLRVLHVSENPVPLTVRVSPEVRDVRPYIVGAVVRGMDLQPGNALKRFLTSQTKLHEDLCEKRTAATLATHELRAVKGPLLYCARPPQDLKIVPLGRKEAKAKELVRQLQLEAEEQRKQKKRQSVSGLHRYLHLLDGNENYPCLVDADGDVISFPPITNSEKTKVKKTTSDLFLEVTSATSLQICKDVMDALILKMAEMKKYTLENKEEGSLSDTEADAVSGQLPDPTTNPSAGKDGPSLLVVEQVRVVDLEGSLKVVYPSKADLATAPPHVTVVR
UniProt Q9NT99: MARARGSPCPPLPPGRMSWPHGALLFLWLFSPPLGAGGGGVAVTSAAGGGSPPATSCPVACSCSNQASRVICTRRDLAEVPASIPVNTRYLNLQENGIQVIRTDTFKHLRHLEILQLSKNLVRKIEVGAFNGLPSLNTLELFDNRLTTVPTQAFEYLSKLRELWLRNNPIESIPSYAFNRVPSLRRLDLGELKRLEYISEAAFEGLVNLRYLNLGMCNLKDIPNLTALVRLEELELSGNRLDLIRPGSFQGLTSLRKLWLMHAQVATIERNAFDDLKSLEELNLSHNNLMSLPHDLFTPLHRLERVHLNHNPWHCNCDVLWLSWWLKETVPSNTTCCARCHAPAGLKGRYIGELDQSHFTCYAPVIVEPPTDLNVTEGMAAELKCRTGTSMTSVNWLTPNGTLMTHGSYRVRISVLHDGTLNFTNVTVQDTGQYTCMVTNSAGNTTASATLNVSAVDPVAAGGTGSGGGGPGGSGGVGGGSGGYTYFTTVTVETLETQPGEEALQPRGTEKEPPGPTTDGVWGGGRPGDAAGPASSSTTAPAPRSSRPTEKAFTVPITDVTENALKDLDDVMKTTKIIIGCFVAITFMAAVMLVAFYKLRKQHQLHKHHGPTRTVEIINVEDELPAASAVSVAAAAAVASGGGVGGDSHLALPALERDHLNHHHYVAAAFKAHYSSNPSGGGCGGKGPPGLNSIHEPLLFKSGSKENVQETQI
UniProt Q8NG48: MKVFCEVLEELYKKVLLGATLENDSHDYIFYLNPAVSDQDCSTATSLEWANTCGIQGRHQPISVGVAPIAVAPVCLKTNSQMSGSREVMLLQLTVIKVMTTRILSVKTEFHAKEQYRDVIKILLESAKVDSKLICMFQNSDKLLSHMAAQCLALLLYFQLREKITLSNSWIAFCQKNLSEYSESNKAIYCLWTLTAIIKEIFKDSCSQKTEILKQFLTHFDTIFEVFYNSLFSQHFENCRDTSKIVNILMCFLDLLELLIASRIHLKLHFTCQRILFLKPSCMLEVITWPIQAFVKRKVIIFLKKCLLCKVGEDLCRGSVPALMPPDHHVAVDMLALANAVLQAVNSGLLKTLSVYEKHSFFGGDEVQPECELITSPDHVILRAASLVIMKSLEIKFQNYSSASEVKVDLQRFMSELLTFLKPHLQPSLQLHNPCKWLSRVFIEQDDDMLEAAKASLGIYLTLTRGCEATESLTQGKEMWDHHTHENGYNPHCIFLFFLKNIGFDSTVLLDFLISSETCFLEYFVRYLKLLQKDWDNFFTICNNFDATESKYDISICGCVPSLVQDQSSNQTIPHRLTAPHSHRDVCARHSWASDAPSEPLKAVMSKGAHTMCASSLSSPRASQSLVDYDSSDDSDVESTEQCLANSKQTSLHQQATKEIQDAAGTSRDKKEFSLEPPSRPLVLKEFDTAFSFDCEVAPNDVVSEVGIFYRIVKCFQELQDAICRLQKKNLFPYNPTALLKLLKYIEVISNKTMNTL
UniProt Q96II8: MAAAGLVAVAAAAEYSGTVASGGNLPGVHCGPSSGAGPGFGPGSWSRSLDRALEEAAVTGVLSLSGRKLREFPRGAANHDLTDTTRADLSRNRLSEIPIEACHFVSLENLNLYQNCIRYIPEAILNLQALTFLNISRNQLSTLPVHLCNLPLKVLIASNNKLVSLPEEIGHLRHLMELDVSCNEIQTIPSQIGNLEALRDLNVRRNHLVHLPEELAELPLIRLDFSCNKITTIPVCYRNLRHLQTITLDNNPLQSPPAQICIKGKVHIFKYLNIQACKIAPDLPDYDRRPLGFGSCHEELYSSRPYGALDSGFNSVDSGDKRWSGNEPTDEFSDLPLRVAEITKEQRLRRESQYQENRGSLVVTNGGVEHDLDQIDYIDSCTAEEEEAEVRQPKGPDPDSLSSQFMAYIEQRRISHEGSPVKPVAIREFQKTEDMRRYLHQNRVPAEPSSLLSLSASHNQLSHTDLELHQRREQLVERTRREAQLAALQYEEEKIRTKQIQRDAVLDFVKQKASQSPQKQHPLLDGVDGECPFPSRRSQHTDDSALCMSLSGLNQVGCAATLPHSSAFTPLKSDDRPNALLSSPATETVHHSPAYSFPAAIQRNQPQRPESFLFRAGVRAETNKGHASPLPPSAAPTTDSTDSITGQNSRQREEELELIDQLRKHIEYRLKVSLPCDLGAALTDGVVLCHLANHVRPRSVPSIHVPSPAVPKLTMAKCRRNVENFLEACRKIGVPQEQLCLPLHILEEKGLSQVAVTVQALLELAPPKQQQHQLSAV
UniProt P18858, whole entry, looked up: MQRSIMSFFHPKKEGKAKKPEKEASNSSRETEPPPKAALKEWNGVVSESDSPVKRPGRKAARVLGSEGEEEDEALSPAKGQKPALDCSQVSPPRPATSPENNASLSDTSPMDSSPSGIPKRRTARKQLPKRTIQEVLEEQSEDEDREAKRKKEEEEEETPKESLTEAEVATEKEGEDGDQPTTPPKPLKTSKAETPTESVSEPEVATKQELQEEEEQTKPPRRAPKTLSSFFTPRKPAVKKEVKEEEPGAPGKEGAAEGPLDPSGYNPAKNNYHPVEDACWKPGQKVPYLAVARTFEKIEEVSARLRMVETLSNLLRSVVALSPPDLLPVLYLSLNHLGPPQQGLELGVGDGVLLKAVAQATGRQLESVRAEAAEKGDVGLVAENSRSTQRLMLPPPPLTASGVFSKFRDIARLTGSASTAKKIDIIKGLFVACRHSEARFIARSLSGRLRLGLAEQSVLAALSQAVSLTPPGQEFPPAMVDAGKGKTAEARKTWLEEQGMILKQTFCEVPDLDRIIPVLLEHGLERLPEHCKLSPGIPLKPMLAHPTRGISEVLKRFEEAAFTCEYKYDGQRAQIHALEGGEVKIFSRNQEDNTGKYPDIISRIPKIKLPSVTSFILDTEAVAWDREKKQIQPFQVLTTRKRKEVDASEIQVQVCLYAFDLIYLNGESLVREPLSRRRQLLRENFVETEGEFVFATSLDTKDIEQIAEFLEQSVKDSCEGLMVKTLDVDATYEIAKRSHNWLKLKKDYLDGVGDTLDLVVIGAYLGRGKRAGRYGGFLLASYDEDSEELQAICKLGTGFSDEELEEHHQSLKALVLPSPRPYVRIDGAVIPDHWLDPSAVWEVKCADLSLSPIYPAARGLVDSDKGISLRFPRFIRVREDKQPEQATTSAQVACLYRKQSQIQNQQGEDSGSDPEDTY
UniProt Q14739: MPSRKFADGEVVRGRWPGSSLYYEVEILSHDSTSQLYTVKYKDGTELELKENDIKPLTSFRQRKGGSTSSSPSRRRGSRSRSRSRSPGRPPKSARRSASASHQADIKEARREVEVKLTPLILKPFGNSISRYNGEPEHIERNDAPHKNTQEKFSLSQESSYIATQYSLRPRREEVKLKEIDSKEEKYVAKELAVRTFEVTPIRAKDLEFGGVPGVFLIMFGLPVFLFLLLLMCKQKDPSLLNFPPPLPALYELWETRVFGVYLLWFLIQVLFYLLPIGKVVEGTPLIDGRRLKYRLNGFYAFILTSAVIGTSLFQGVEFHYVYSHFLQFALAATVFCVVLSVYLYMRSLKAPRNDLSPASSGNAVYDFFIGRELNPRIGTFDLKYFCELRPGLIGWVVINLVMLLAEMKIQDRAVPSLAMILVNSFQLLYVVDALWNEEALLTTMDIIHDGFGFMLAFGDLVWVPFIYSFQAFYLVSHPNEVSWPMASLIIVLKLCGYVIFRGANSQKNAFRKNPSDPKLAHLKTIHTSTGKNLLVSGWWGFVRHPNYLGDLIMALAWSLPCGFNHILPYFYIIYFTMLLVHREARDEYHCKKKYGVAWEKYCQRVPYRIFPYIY
UniProt Q9UHB6: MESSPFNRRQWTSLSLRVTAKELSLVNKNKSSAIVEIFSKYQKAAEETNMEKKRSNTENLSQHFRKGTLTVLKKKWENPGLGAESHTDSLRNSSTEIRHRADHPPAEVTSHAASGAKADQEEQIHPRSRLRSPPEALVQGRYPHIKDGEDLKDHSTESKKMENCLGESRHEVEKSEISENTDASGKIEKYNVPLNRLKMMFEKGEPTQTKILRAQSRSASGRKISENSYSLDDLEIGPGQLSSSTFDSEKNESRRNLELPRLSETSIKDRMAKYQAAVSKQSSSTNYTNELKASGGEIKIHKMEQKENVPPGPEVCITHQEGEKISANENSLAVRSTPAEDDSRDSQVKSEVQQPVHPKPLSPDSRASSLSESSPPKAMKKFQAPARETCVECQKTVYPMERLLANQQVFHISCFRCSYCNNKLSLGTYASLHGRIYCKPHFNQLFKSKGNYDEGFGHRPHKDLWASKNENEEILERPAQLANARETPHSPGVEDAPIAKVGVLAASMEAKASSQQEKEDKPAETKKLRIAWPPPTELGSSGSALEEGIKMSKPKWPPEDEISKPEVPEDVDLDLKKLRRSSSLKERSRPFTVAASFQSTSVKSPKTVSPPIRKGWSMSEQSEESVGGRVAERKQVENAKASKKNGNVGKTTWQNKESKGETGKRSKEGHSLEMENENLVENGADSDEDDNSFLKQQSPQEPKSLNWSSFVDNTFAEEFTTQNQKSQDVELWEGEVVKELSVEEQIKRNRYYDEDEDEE
UniProt Q12907: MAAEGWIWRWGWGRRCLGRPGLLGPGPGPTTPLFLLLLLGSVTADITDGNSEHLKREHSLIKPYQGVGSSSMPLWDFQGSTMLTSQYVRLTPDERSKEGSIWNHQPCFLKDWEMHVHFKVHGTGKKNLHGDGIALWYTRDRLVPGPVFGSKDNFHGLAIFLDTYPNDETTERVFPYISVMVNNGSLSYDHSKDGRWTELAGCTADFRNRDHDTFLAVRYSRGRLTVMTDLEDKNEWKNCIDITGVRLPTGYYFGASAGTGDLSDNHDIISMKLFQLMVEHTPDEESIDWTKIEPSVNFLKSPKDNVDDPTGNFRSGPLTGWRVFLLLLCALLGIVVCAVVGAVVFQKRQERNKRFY
UniProt P07195, whole entry, looked up: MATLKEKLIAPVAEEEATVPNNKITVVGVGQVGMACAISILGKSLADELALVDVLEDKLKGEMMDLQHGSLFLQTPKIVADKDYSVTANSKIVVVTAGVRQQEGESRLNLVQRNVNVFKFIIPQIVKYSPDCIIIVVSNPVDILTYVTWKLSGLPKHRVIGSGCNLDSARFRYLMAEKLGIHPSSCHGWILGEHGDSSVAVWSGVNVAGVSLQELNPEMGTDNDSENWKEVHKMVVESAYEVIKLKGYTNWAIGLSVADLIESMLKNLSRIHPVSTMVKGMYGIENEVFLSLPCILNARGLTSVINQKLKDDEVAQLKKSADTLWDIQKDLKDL

Legend:
Assay in all cases: log2 fold change, soluble protein after heating vs DMSO (PISA); higher = thermal stabilisation; K562 lysate, 10 uM; active = over 0.2 and 3.5 SD of the protein, either way, in both replicates (recomputed)
[1] = compound: C1=CC=C(C=C1)[C@H](COC2=CC3=C(C=C2)NC(=O)N3)NC(=O)C4=CC=CN(C4=O)CC5=CC(=C(C=C5)F)F
Outline: (§1)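 Values give the log-two fold change in thermal stability against solvent controls, from duplicates. Crude K562 extract at 1 mg/mL protein, made by dounce homogenisation in PBS pH 7.4 with 1 mM MgCl2, was treated with 10 μM compound for 30 min. After 3 min heating across 48°C-58°C, aliquots were pooled, adjusted to 0.5% NP-40 at 4°C and centrifuged at 21,000xg for 90 min. The supernatant was measured by TMTpro 16plex LC-MS/MS with channel sums equalised.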

[2] = compound: CC1=C(SC2=C1C(=N[C@H](C3=NN=C(N32)C)CC(=O)N)C4=CC=C(C=C4)Cl)C
Outline: as §1

[3] = compound: CC1=C2C(=CC=C1)N=C(N(C2=O)C3=CC=CC=C3C)CN4C=NC5=C(N=CN=C54)N
Outline: as §1

[4] = compound: Cc1sc2c(c1C)C(c1ccc(Cl)cc1)=N[C@@H](CC(=O)OC(C)(C)C)c1nnc(C)n1-2
Outline: as §1

[5] = compound: c1ccc([C@@H]2C[C@H]2NC2CCNCC2)cc1
Outline: as §1

Measured: log2 fold change

LRRC47 (UniProt Q8N1G4)
inactive: [1] 0.008 | [2] 0.021 | [3] 0.003 | [4] 0.016 | [5] 0.009

LRRC4B (UniProt Q9NT99)
inactive: [1] 0.139 | [2] -0.015 | [3] 0.098 | [4] 0.21 | [5] 0.05

LINS1 (UniProt Q8NG48)
inactive: [1] 0.032 | [2] -0.007 | [3] 0.079 | [4] -0.037 | [5] 0.009

LRCH3 (UniProt Q96II8)
inactive: [1] -0.038 | [2] -0.044 | [3] 0.025 | [4] -0.014 | [5] -0.028

LIG1 (UniProt P18858)
inactive: [1] 0 | [2] 0.02 | [3] 0.016 | [4] -0.004 | [5] 0.017

LBR (UniProt Q14739)
inactive: [1] -0.018 | [2] 0.045 | [3] 0.04 | [4] 0.007 | [5] 0.117

LIMA1 isoform 4 (UniProt Q9UHB6)
inactive: [1] 0.009 | [2] 0.022 | [3] 0.017 | [4] 0 | [5] 0.023

LMAN2 (UniProt Q12907)
inactive: [1] -0.004 | [2] -0.011 | [3] 0.005 | [4] 0.041 | [5] -0.028

LDHB (UniProt P07195)
inactive: [1] 0.01 | [2] 0.027 | [3] -0.004 | [4] -0.007 | [5] -0.009
